The experiment can be described thus: qHTS Assay for Modulators of Lamin A Splicing. As to conditions: HeLa LMNA splicing GFP/RFP minigene ratio, 48 h. A digest of the protocol: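 S3 HeLa stable clones carrying a lamin A-EGFP splicing minigene plus DsRed2 were seeded at 600 cells/well in Opti-MEM with 2% FBS, pin-dosed and incubated 48 h at 37°C. Acumen cytometry (488 nm) gave the GFP/RFP total-intensity ratio.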
On the technique in general: qHTS replaces the single test concentration by a dilution series.

Where [1] appears, read: measured here: GFP splicing reporter channel.
Setting [2] is: measured here: RFP viability control channel.

The structures appear in SMILES notation. The list shows a part of the results. Shown are side measurements of this screen, not its main read-out; they come without a call. The list favours compounds with an active or inconclusive main result. The note in brackets gives the kind of curve behind each potency; many fits are weak.

This note sets out measurements from PubChem BioAssay AID1487 (National Center for Advancing Translational Sciences (NCATS), 2009).

As to `CCOc1cc(/C=C(\C#N)C(=O)NCc2cccnc2)ccc1O`, the AC50 under setting [1] is 2 µM [falling, partial curve] and the AC50 under setting [2] is 1.12 µM [falling, full curve, poor fit].
For the molecule `CC(=O)Nc1ccc(N2S(=O)(=O)c3ccccc3S2(=O)=O)cc1`, under setting [2], the AC50 was 14.1 µM [rising, single point].
For `O=C(c1cccc(S(=O)(=O)N2CCCC2)c1)c1nnc(-c2ccncc2)o1`, the AC50 reads like this: under setting [1], 0.0282 µM [rising, partial curve, poor fit]; under setting [2], 0.0398 µM [rising, full curve, poor fit].
`C=CCn1c(SC(C)C(=O)NCc2ccc3c(c2)OCO3)nnc1C1CCCCC1` (centres undefined): the AC50 under setting [1] was 12.6 µM [rising, single point].
On to `NC(=O)N1c2ccccc2C=Cc2ccccc21`, for which the AC50 was 17.8 µM [falling, partial curve, poor fit] under setting [1] and 0.00398 µM [falling, full curve, poor fit] under setting [2].
For the molecule `Cc1nn(-c2ccccc2)c(Cl)c1/C=C/C(=O)c1ccc(O)cc1`, the AC50 is, setting by setting: under setting [1], 35.5 µM [falling, single point]; under setting [2], 35.5 µM [falling, single point].
As for `Cc1ccc2cccnc2c1N`, the AC50 under setting [1] is 0.0224 µM [falling, full curve, poor fit] and the AC50 under setting [2] was 31.6 µM [falling, partial curve, poor fit].
Regarding `COc1ccc(N2CCN(C(=O)CSc3ncccc3-c3nc4ccccc4[nH]3)CC2)cc1`, the AC50 is, setting by setting: under setting [1], 14.1 µM [rising, single point]; under setting [2], 31.6 µM [rising, single point].
`N/C(Cc1cccc2ccccc12)=N\OC(=O)Cc1cccs1`: the AC50 is 14.1 µM [rising, single point] under setting [1] and 31.6 µM [rising, single point] under setting [2].
As for `Cc1ccc(-c2ccc(=O)[nH]n2)cc1`, the AC50 under setting [1] was 15.8 µM [falling, partial curve] and the AC50 under setting [2] was 22.4 µM [falling, partial curve].
For `Cc1ccc2nc(-c3ccc(NS(C)(=O)=O)cc3)cc(-c3ccccc3)c2c1`, the AC50 is 35.5 µM [falling, single point] under setting [1] and 25.1 µM [falling, single point] under setting [2].
Consider `Cc1ccc(Sc2ccncc2S(N)(=O)=O)cc1`, for which the AC50 runs as follows: under setting [1], 7.94 µM [rising, partial curve, poor fit]; under setting [2], 14.1 µM [rising, partial curve, poor fit].
As for `COc1cccc(-c2cc(C(=O)NCCCn3ccnc3)no2)c1`, the AC50 under setting [2] was 17.8 µM [rising, single point].
For `COc1cc(/C=C/C(=O)N2C(=O)c3cccc(N)c3C2=O)cc(OC)c1OC`, the AC50 under setting [1] is 3.16 µM [falling, single point].
On to `CCN(CC)S(=O)(=O)c1cc(C(=O)Nc2ccc(Cl)cn2)ccc1C`, for which the AC50 under setting [2] is 35.5 µM [rising, single point].
Regarding `O=C1CSC2(C(=O)N(Cc3cccc(C(F)(F)F)c3)c3ccccc32)N1c1ccc(F)c(F)c1` (centres undefined), under setting [2], the AC50 was 0.178 µM [falling, full curve, poor fit].
For the molecule `Cc1ccc(CNC(=O)Cn2ccn(-c3cccc(Cl)c3)c(=O)c2=O)cc1`, the AC50 under setting [2] was 1.26 µM [rising, full curve, poor fit].
In the case of `O=C1Nc2ccccc2/C1=N/c1sc2c(c1C(=O)NCCc1ccccc1)CCCC2`, under setting [1], the AC50 is 11.2 µM [falling, partial curve, poor fit].
For `CCc1ccccc1NC(=O)CN(C)C(=O)CSc1nnc(Nc2cccc(C)c2C)s1`, the AC50 is, setting by setting: under setting [1], 35.5 µM [rising, single point]; under setting [2], 25.1 µM [rising, single point].
Consider `COc1ccc(-n2c(C)cc(C(=O)CN3C(=O)C(=O)N(Cc4ccccc4)C3=O)c2C)cc1`, for which the AC50 was 0.0141 µM [rising, full curve, poor fit] under setting [1] and 14.1 µM [rising, partial curve] under setting [2].
With `COc1c(Br)cc(Br)cc1/C=N/NC(=O)c1ccncc1`, under setting [1], the AC50 was 0.02 µM [rising, full curve, poor fit].
As to `Cc1c(C(=O)N/N=C/c2ccccc2)[nH]c2ccc(Cl)cc12`, under setting [2], the AC50 was 3.55 µM [rising, full curve].
With `CCOc1cccc(NCc2cc3c(C(C)(C)C)nn(-c4ccccc4)c3[nH]c2=O)c1`, the AC50 under setting [1] is 14.1 µM [rising, single point] and the AC50 under setting [2] is 14.1 µM [rising, single point].
Turning to `CCCCSCCCNC(=O)CS(=O)Cc1nc(-c2cccc(C)c2)oc1C` (centres undefined), the AC50 under setting [2] is 35.5 µM [rising, single point].
With `Cc1ccsc1C(=O)Nc1nnc(-c2ccco2)o1`, the AC50 under setting [2] is 8.91 µM [rising, partial curve, poor fit].
Regarding `COC(=O)c1sccc1NC(=O)c1c(-c2ccccc2)noc1C`, the AC50 is, setting by setting: under setting [1], 35.5 µM [rising, single point]; under setting [2], 35.5 µM [rising, single point].
As for `O=C1C2C3C=CC(C3)C2C(=O)N1c1ccc(-c2nc3ccccc3c(=O)o2)cc1` (centres undefined), under setting [1], the AC50 was 2.24 µM [falling, full curve, poor fit].
With `COc1cc(/C=C(\C#N)c2nnc(N3CCOCC3)n2-c2ccccc2)ccc1O`, the AC50 under setting [2] is 17.8 µM [rising, single point].
As to `S=C(Nc1ccc2nsnc2c1)NC1CCCCC1`, the AC50 under setting [2] is 35.5 µM [rising, single point].
On the same count and under the same terms, the figure for `O=C(Nc1ccc(Cl)cc1)NC1CCCC1Cc1ccco1` (centres undefined) is 35.5 µM [rising, single point].
For the molecule `Cn1c(=O)c2c(nc(N/N=C/c3cccs3)n2Cc2ccccc2)n(C)c1=O`, the AC50 under setting [2] was 0.00447 µM [rising, full curve, poor fit].
Turning to `CCOC(=O)CSc1nc2cc3c(cc2cc1C)OCO3`, under setting [2], the AC50 was 0.0398 µM [falling, full curve].
As to `O=C(Nc1ccccc1NC(=O)c1c(F)c(F)c(F)c(F)c1F)c1c(F)c(F)c(F)c(F)c1F`, the AC50 under setting [2] was 35.5 µM [falling, single point].
As to `CCCCN1Cc2cc(C(=O)c3cc(OC)ccc3O)cnc2NC1=O`, the AC50 is 11.2 µM [rising, partial curve] under setting [1] and 12.6 µM [rising, partial curve, poor fit] under setting [2].

Broadly, the AC50 is the concentration at which the activity in the assay is half-maximal.
